Article PMC4745767
No constants are given. Whether binding was seen depends on the method and setting. Binding seen in cells or lysates may run through a third protein. Some entries that bind do so weakly or less than the wild type.

By UniProt entry, the sequences of proteins in these tests, tags left out.
UniProt Q92597: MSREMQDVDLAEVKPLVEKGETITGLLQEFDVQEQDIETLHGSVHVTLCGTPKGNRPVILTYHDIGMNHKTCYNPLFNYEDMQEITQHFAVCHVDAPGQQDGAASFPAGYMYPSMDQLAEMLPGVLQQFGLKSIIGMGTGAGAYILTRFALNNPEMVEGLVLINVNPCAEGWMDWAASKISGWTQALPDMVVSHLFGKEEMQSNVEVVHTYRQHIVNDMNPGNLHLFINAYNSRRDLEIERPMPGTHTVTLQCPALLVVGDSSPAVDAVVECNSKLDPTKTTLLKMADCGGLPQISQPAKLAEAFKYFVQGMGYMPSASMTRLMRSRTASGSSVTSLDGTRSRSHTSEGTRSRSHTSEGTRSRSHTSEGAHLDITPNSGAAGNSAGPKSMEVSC
UniProt P49841: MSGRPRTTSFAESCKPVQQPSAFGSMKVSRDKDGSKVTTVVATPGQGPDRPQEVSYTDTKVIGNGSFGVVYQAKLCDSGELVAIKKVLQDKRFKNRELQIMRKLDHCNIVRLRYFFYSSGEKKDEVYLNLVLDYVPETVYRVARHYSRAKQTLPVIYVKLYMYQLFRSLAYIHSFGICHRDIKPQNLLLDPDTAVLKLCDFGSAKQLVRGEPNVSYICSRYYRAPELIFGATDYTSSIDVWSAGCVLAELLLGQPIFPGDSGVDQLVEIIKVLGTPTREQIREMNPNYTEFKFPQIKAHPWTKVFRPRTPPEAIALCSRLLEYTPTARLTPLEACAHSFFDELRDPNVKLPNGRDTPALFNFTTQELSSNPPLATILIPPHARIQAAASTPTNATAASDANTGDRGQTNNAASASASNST

How the values were obtained:
[1] = target: N-myc downstream regulated gene 1 (NDRG1), endogenous in HCC cells (human (endogenous in Huh7, HepG2, Hep3B)) (UniProt Q92597); assay: co-IP; tumor lysates of Hep3B and HepG2 xenografts (control shRNA or NDRG1 shRNA) from nude mice; endogenous proteins
[2] = target: N-myc downstream regulated gene 1 (NDRG1), endogenous in HCC cells (human (endogenous in Huh7, HepG2, Hep3B)) (UniProt Q92597); assay: co-IP; 500 μg cell lysate, 2 μg anti-NDRG1 antibody, protein A/G PLUS-agarose, 4°C; endogenous proteins in Huh7, HepG2, Hep3B; cells under normoxia or hypoxia (0.5% O2)

binding [1]: binds
binding [2]: binds
Substance: glycogen synthase kinase 3β (GSK-3β), endogenous in HCC cells (from UniProt P49841 1-420) (enzyme)
